Source: the supplement of paper PMC10849652
Some of the results follow.

Sequences of proteins named here, by UniProt entry; tags and fusion partners are left off. A change or cut given only in a name is not applied to a line headed by its entry.
UniProt O15554, whole entry, looked up: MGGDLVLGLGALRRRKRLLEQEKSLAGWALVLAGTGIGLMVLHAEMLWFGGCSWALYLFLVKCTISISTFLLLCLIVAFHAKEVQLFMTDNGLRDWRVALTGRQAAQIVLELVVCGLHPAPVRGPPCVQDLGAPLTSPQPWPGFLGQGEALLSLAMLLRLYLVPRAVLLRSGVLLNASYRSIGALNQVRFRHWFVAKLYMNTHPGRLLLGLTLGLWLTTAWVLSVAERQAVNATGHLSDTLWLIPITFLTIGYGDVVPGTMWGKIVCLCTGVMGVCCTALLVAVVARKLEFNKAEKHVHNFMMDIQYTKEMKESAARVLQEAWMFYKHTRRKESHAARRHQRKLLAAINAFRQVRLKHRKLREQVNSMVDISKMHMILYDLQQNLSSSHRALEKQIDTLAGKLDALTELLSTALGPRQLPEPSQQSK
UniProt O00522: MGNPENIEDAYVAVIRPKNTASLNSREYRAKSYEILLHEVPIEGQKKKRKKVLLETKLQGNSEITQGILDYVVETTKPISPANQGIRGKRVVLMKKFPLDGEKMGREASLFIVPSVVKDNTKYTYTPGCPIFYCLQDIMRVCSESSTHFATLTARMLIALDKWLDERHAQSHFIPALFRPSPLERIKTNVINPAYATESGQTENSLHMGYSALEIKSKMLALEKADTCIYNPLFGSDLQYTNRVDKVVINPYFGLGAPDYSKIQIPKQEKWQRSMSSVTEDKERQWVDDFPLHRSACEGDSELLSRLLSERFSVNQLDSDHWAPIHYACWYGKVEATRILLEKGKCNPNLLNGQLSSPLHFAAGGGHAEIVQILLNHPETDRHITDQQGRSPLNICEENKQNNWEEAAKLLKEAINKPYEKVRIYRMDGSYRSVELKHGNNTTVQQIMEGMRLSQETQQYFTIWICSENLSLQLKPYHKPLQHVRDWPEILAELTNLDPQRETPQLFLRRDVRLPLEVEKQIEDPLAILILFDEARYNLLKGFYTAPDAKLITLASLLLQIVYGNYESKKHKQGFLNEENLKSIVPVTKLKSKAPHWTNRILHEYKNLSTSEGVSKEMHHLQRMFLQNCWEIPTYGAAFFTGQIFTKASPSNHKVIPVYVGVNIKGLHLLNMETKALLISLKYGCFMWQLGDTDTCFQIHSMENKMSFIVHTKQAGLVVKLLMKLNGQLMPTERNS
UniProt Q8NC54: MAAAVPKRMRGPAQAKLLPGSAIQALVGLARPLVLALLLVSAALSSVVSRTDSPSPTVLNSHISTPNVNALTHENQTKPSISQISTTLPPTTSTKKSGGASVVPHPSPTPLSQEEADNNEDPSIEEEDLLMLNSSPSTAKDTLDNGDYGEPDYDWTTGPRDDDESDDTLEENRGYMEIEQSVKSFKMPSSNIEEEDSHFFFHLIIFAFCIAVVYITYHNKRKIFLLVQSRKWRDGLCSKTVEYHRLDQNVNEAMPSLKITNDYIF
UniProt O95251, whole entry, looked up: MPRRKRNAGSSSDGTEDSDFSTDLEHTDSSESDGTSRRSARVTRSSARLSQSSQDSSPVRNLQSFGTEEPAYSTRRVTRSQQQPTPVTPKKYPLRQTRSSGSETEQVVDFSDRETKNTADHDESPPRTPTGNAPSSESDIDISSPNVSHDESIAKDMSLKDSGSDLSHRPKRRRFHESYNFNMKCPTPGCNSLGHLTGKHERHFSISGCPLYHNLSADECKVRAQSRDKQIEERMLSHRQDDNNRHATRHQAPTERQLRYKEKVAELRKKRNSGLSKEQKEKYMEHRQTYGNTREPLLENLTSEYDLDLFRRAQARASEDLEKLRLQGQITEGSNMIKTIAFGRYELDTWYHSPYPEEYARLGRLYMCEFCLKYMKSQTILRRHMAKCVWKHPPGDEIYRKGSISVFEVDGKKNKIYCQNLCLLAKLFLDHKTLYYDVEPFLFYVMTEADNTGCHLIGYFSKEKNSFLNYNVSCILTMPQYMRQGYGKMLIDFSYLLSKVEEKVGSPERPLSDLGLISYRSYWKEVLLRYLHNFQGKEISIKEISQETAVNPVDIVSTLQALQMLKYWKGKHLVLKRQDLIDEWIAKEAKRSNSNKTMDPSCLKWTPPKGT
UniProt Q9H079: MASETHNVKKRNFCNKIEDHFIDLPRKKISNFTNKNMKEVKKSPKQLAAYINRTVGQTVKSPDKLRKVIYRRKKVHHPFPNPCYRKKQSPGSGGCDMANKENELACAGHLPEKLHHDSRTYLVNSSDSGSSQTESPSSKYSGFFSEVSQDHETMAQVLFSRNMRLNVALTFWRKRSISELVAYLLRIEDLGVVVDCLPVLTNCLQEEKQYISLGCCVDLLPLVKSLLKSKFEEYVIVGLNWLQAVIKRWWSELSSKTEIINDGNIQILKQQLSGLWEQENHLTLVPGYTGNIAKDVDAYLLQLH
UniProt O94889: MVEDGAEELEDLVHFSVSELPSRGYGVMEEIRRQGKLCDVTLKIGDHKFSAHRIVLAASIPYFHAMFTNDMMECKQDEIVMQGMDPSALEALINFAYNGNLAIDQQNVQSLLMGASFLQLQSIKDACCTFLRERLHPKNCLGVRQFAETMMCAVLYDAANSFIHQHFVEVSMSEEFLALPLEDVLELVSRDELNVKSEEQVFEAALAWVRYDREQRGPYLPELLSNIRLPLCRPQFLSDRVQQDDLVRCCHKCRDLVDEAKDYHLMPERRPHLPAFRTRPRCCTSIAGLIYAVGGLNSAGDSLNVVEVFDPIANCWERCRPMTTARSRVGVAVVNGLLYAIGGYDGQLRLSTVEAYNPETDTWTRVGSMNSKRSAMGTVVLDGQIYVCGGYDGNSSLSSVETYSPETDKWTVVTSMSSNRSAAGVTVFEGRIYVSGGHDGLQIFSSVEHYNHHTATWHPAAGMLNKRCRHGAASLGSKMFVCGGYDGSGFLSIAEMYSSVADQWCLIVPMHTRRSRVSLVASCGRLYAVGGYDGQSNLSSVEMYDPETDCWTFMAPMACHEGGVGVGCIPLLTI
UniProt Q8NHM5: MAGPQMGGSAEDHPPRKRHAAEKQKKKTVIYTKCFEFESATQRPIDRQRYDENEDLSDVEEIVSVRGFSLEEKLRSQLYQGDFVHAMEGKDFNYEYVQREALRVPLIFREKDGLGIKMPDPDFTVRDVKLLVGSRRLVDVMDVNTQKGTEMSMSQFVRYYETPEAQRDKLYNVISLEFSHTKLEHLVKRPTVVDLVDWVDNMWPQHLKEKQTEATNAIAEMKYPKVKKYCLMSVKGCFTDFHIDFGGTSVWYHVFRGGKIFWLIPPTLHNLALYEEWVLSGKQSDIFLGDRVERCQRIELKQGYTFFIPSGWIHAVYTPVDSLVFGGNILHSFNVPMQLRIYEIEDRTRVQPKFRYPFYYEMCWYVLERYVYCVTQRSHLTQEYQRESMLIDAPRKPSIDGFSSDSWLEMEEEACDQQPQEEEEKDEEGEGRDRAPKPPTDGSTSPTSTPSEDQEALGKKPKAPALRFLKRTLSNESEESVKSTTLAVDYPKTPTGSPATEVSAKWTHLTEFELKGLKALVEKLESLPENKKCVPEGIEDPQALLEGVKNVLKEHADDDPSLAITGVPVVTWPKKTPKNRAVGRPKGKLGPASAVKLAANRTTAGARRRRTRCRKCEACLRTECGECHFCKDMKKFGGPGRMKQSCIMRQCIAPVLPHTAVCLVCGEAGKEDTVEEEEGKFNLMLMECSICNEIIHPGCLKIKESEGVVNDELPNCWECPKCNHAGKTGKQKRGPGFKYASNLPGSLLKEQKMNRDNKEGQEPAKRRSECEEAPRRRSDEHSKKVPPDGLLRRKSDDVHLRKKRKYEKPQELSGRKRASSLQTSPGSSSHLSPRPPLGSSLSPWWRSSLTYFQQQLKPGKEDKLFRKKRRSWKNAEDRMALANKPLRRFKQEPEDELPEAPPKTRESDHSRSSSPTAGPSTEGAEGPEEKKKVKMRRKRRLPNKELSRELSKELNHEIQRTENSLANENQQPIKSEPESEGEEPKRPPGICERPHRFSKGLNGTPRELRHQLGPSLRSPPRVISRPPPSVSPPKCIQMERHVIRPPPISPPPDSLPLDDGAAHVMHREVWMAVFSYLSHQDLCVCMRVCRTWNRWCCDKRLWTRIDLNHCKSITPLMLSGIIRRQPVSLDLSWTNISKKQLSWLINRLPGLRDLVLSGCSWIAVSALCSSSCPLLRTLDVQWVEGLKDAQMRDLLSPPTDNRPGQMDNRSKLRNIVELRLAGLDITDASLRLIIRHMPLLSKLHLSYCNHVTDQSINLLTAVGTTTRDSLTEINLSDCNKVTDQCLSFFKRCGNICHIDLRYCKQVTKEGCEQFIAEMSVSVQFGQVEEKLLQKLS
UniProt Q6P597: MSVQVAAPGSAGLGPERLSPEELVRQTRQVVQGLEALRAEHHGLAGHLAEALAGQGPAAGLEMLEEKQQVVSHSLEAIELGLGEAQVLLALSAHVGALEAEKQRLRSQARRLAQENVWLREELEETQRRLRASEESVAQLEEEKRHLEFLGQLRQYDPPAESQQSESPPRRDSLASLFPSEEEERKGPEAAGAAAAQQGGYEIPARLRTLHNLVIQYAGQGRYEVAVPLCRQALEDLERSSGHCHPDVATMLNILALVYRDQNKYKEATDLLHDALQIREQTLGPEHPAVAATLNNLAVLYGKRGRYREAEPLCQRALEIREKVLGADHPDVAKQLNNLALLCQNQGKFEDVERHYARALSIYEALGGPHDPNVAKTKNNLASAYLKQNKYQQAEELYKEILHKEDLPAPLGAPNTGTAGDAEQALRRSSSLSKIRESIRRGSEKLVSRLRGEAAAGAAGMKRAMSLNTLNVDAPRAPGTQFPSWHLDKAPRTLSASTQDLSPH
UniProt Q2M2Z5: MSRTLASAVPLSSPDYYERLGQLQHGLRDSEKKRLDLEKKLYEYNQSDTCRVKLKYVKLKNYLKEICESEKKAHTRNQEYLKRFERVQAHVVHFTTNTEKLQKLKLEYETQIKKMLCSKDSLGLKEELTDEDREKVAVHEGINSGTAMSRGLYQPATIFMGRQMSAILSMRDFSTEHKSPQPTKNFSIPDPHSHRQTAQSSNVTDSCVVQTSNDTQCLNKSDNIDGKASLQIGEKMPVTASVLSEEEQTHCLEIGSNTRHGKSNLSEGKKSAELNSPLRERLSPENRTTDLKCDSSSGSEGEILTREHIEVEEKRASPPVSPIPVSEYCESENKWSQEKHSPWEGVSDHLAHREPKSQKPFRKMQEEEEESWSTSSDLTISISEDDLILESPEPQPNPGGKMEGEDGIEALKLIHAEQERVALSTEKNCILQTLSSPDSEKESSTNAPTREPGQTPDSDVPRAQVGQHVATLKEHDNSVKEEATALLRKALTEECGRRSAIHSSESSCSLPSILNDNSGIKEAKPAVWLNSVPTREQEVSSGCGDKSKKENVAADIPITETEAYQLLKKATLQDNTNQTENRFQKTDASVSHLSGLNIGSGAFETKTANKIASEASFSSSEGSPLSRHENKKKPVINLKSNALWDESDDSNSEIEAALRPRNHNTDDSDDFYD
UniProt O60870: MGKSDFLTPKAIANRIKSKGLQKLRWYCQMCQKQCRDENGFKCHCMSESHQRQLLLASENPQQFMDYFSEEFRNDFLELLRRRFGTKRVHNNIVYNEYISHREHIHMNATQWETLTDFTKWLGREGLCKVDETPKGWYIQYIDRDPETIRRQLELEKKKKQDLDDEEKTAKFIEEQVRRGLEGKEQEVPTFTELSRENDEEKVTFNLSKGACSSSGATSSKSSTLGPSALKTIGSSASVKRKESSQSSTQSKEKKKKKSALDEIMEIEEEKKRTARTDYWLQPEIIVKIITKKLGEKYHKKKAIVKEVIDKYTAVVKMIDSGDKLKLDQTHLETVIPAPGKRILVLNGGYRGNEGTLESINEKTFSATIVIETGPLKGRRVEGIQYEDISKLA
UniProt Q1ED39: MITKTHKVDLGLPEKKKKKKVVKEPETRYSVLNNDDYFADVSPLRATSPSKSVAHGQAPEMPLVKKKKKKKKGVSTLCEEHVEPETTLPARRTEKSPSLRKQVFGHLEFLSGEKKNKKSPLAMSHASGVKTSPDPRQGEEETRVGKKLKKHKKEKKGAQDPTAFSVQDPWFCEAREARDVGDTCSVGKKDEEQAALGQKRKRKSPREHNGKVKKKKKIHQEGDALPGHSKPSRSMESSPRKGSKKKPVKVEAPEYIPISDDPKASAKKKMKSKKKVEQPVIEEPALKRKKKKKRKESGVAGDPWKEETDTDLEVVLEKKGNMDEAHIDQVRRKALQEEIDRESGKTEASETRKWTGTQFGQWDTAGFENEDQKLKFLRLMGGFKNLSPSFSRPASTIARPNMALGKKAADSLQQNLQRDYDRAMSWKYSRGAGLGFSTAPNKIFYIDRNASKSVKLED
UniProt O76095: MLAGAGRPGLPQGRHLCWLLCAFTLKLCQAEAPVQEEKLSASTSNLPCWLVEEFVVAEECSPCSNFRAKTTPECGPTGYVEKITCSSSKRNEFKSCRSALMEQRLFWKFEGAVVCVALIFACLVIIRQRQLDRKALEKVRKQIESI

Tests used:
Test in all cases: log2 fold change, soluble protein after heating vs DMSO (PISA); higher = thermal stabilisation; K562 cells, 10 uM, 30 min; active = over 0.2 and 3.5 SD of the protein, either way, in both replicates (recomputed)
[1] = compound: CC1=C(C=C(C=C1)NC(=O)C2=CC(=CC=C2)C(C)(C)C#N)NC3=CC4=C(C=C3)N=CN(C4=O)C
In short: (§1)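 Soluble protein was quantified by TMTpro 16plex LC-MS/MS after channel sums were equalised. It was obtained as the supernatant after 21,000xg for 90 min from pooled aliquots of K562 cells (2×10^6 cells/mL, 10 μM compound, 30 min) heated for 3 min across 48°C-58°C and extracted in PBS with 0.5% NP-40 at 4°C. Thermal stability values are relative to control samples and come from duplicates. They are given as log2 fold changes.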

[2] = compound: CC1=C(C=C(C=C1)NC(=O)C2=CC(=CC=C2)N(C)C)NC(=O)C3=CC=C(C=C3)O
In short: as §1

[3] = compound: CC1=CC=C(C=C1)SC2=C3C=C(SC3=CN=C2)C(=O)N
In short: as §1

vemurafenib = compound: CCCS(=O)(=O)Nc1ccc(F)c(C(=O)c2c[nH]c3ncc(-c4ccc(Cl)cc4)cc23)c1F [vemurafenib]
In short: as §1

[4] = compound: CCCS(=O)(=O)Nc1ccc(F)c(C(=O)c2c[nH]c3ncc(Cl)cc23)c1F
In short: as §1

[5] = compound: CCCc1cc(C)[nH]c(=O)c1CNC(=O)c1cc(-c2ccnc(N3CCN(C)CC3)c2)cc2c1cnn2C(C)C
In short: as §1

givinostat = compound: CCN(CC)Cc1ccc2cc(COC(=O)Nc3ccc(C(=O)NO)cc3)ccc2c1 [givinostat]
In short: as §1

barasertib = compound: CCN(CCCOc1ccc2c(Nc3cc(CC(=O)Nc4cccc(F)c4)[nH]n3)ncnc2c1)CCOP(=O)(O)O [barasertib]
In short: as §1

volasertib = compound: CC[C@@H]1C(=O)N(C)c2cnc(Nc3ccc(C(=O)N[C@H]4CC[C@H](N5CCN(CC6CC6)CC5)CC4)cc3OC)nc2N1C(C)C [volasertib]
In short: as §1

[6] = compound: CC[C@H](C)N1C=C(C2=C(C=C(C=C21)C3=CN=C(C=C3)N4CCNCC4)C(=O)NCC5=C(C=C(NC5=O)C)C)C
In short: as §1

[7] = compound: CCn1c(C(=O)N(C2CC2)C2CC2)cc2c3c(ncn3C)c(Nc3cc(C)n(C)n3)nc21
In short: as §1

[8] = compound: CCn1cc(-c2ccnc3[nH]c(-c4cccc(CN(C)C)c4)cc23)c(-c2ccc(NC(=O)N(C)C)cc2)n1
In short: as §1

[9] = compound: CN(C)CC(=O)Nc1ccc2[nH]c(=O)c3ccccc3c2c1
In short: as §1

rosiglitazone = compound: CN(CCOC1=CC=C(C=C1)C[C@H]2C(=O)NC(=O)S2)C3=CC=CC=N3 (racemic) [rosiglitazone]
In short: as §1

[10] = compound: CN1C2=C(C3=C1C(=O)N(N=C3)CC4=CC(=CC=C4)N)SC(=C2)S(=O)C
In short: as §1

[11] = compound: CN1CCC(CNc2ccc3ncc(-c4cccc(OC(F)(F)F)c4)n3n2)CC1
In short: as §1

[12] = compound: CC1=NC(=CC=C1)C2=C(N=C(N2)C(C)(C)C)C3=CC4=NC=CN=C4C=C3
In short: as §1

Nexturastat A = compound: CCCCN(Cc1ccc(C(=O)NO)cc1)C(=O)Nc1ccccc1 [Nexturastat A]
In short: as §1

[13] = compound: CC[C@@H]1C(=O)N(C)c2cnc(Nc3ccc(C(=O)NC4CCN(C)CC4)cc3OC)nc2N1C1CCCC1
In short: as §1

epoxomicin = compound: CC[C@H](C)[C@@H](C(=O)N[C@@H]([C@@H](C)O)C(=O)N[C@@H](CC(C)C)C(=O)[C@]1(CO1)C)NC(=O)[C@H]([C@@H](C)CC)N(C)C(=O)C [epoxomicin]
In short: as §1

Measured: log2 fold change

KAT8 isoform 2 (UniProt Q9H7Z6)
inactive: [1] 0.025 | [2] -0.028 | [3] 0.122 | vemurafenib -0.136 | [4] -0.018 | [5] -0.037 | givinostat -0.003 | barasertib -0.007 | volasertib -0.208 | [6] -0.013 | [7] 0.046 | [8] 0.024 | [9] -0.062 | rosiglitazone 0.014 | [10] 0.044 | [11] 0.003

JMJD6 isoform 3 (UniProt Q6NYC1)
active: volasertib -0.306
inactive: [1] 0.055 | [2] -0.085 | [3] 0.092 | [12] 0.024 | Nexturastat A -0.147 | vemurafenib 0.002 | [4] 0.049 | [5] 0.071 | givinostat -0.095 | barasertib -0.007 | [13] -0.044 | [6] -0.012 | epoxomicin -0.015 | [8] -0.009 | [9] -0.006 | [10] 0.006 | [11] -0.09

KCNN4 (UniProt O15554)
inactive: [1] 0.054 | [2] 0.078 | [3] 0.032 | [12] -0.156 | vemurafenib 0.111 | [4] 0.133 | [5] -0.078 | givinostat 0.02 | barasertib -0.142 | [13] -0.047 | volasertib -0.209 | [6] 0.138 | [7] -0.033 | [9] -0.106 | rosiglitazone 0.152 | [10] 0.119

KLF3 (UniProt P57682)
inactive: [1] -0.071 | [2] 0.148 | [3] -0.033 | [12] 0.013 | Nexturastat A -0.029 | vemurafenib -0.134 | [4] -0.033 | [5] 0 | givinostat 0.136 | barasertib 0.058 | volasertib 0.1 | [6] 0.038 | epoxomicin 0.049 | [7] 0.036 | [8] -0.029 | [9] -0.148 | rosiglitazone -0.095 | [10] 0.086 | [11] -0.082

KDELR1 (UniProt P24390)
inactive: [1] -0.271 | [2] -0.057 | [3] -0.037 | [12] -0.125 | Nexturastat A -0.145 | [4] -0.102 | [5] 0.048 | givinostat 0.085 | barasertib 0.118 | [13] 0.049 | volasertib 0.118 | [6] 0.17 | epoxomicin 0.022 | [7] -0.108 | rosiglitazone -0.113 | [10] -0.099

KLHDC3 (UniProt Q9BQ90)
inactive: [1] 0.064 | [2] -0.021 | [3] 0.065 | [12] -0.039 | Nexturastat A 0.074 | vemurafenib -0.01 | [4] -0.003 | givinostat 0.105 | barasertib -0.023 | [13] -0.002 | volasertib -0.05 | [6] -0.019 | epoxomicin -0.091 | [7] -0.133 | [8] 0.078 | [9] 0.051 | rosiglitazone 0.047 | [10] -0.078 | [11] 0.228

KRIT1 (UniProt O00522)
inactive: [1] 0.088 | [2] 0.08 | [3] 0.072 | Nexturastat A -0.088 | vemurafenib 0.027 | [4] 0.063 | givinostat -0.094 | barasertib 0.142 | volasertib -0.201 | [6] -0.345 | epoxomicin 0.01 | [7] -0.026 | [8] -0.01 | [9] 0.151 | rosiglitazone -0.269 | [10] -0.12 | [11] -0.08

KCT2 (UniProt Q8NC54)
inactive: [1] 0.104 | [2] 0.007 | [3] 0.006 | [12] 0.017 | Nexturastat A -0.102 | vemurafenib -0.013 | [4] -0.011 | [5] -0.008 | givinostat -0.108 | barasertib -0.025 | [13] -0.312 | volasertib -0.076 | [6] -0.006 | epoxomicin -0.063 | [8] -0.03 | [9] 0.064 | [10] -0.051 | [11] -0.037

KAT7 (UniProt O95251)
inactive: [1] -0.139 | [2] -0.101 | [3] -0.053 | [12] -0.185 | vemurafenib -0.013 | [4] 0.088 | [5] 0.075 | givinostat 0.29 | barasertib -0.01 | [13] 0.104 | volasertib -0.001 | [6] -0.244 | [7] -0.172 | [9] 0.027 | rosiglitazone 0.028

KPNB1 (UniProt Q14974)
inactive: [1] 0.049 | [2] -0.041 | [3] 0 | [12] -0.015 | Nexturastat A 0.119 | vemurafenib 0.07 | [4] 0.076 | [5] 0.052 | givinostat 0.085 | barasertib 0.02 | [13] -0.105 | [6] 0.04 | epoxomicin 0.04 | [8] 0.016 | [9] 0.048 | [10] 0.102 | [11] -0.212
active: volasertib -0.432

KATNBL1 (UniProt Q9H079)
inactive: [1] 0.013 | [2] 0.065 | [3] -0.082 | vemurafenib 0.137 | [4] -0.052 | [5] 0.133 | [13] -0.105 | volasertib 0.089 | [8] 0.053 | [9] 0.008 | [10] 0.192 | [11] 0.072

KLHL18 (UniProt O94889)
active: epoxomicin 0.36
inactive: [1] -0.068 | [2] -0.009 | [3] 0.003 | Nexturastat A -0.099 | vemurafenib -0.05 | [4] -0.051 | [5] 0.06 | givinostat -0.049 | barasertib 0.11 | [13] 0.075 | volasertib -0.178 | [6] -0.123 | [8] -0.01 | [9] -0.073 | [10] 0 | [11] 0.034

KIF1C (UniProt O43896)
inactive: [1] 0.256 | [12] 0.082 | barasertib -0.043 | rosiglitazone -0.026

KIF14 (UniProt Q15058)
inactive: [1] -0.144 | [3] -0.134 | [12] -0.131 | Nexturastat A 0.347 | vemurafenib -0.112 | [4] 0.281 | [5] 0.16 | givinostat 0.365 | barasertib -0.016 | [13] 0.354 | volasertib 0.123 | epoxomicin -0.091 | [7] -0.059 | [9] 0.023 | rosiglitazone 0.083 | [10] -0.117

KDM2B (UniProt Q8NHM5)
inactive: [1] -0.064 | barasertib -0.098 | rosiglitazone 0.125

KLC3 isoform 3 (UniProt Q6P597)
inactive: [1] 0.026 | [3] -0.215 | [4] 0.115 | volasertib -0.158

JUN (UniProt P05412)
inactive: [1] -0.265 | [2] 0.114 | [5] -0.028 | givinostat -0.051 | barasertib -0.026 | [13] -0.007 | [6] -0.002 | [7] 0.096 | rosiglitazone -0.187

KIFC3 isoform 6 (UniProt Q9BVG8)
inactive: [1] -0.15 | [2] -0.023 | Nexturastat A -0.083 | vemurafenib 0.091 | [5] -0.271 | givinostat -0.048 | barasertib 0.032 | [13] 0.198 | [6] -0.225 | epoxomicin -0.165 | [7] -0.123 | [8] -0.136 | [9] -0.044 | rosiglitazone 0.238 | [11] -0.37

KIZ (UniProt Q2M2Z5)
inactive: [2] 0.057 | [3] 0.003 | [12] -0.068 | [4] -0.181 | [13] 0.104 | volasertib 0.262 | [8] -0.202 | [11] -0.399

KIN (UniProt O60870)
inactive: [1] -0.044 | [8] 0.184 | [11] 0.249

KNOP1 (UniProt Q1ED39)
inactive: [2] -0.006 | [3] 0.008 | [12] -0.022 | vemurafenib -0.121 | [4] -0.065 | [5] -0.088 | givinostat 0.279 | barasertib 0.094 | [13] 0.055 | volasertib -0.013 | [6] -0.179 | [7] -0.283 | [8] 0.023 | [9] -0.04 | rosiglitazone -0.07 | [10] 0.136 | [11] 0.283

KDM1B (UniProt Q8NB78)
inactive: [1] 0.093 | [12] -0.082 | [5] 0.168 | givinostat 0.081 | barasertib 0.049 | [13] -0.158 | [6] 0.036 | [7] 0.176 | rosiglitazone 0.051 | [10] 0.24

JTB (UniProt O76095)
inactive: [1] -0.063 | [3] -0.068 | [12] 0.045 | Nexturastat A 0.034 | vemurafenib -0.016 | [4] -0.063 | [5] -0.048 | givinostat 0.026 | barasertib 0.011 | [13] -0.046 | volasertib 0.013 | [6] 0.006 | epoxomicin 0.069 | [7] -0.066 | [9] -0.115 | rosiglitazone -0.004 | [10] 0.012

Copied from the listing (2 entries):
KIZ (UniProt Q2M2Z5)
inactive: [2] 0.057 | [3] 0.003 | [12] -0.068 | [4] -0.181 | [13] 0.104 | volasertib 0.262 | [8] -0.202 | [11] -0.399

KIN (UniProt O60870)
inactive: [1] -0.044 | [8] 0.184 | [11] 0.249
